Values from PubChem BioAssay AID1508588 (Peter MacCallum Cancer Centre, 2020).
Screen: 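Genome-wide search for knock-downs that heighten vemurafenib action in melanoma cells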 (primary screen). Cell system: human WM266.4 melanoma cells (BRAF V600 mutant). Knock-down reagent: siRNA pool against human genes, 40 nM. Time to read-out: 96 h from transfection to read-out. Conditions: vemurafenib 300 nM (about IC25), added 48 h after transfection, for 48 h; comparison arm got DMSO vehicle only. Detection: 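Cell gain (DAPI nuclei at end minus before drug, mean of two replicates) and medium lactate by absorbance per cell, both as ratio to non-targeting siRNA, also grouped into fold-change classes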. Scale: cell gain with vemurafenib: higher = more cell gain than with non-targeting siRNA; lactate per cell with vemurafenib: higher = more lactate made per cell. Call rule: 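Enhancement is called by pairing each knock-down's vehicle-arm and drug-arm fold-change classes for viability or glycolysis; which class combinations qualify is not given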. Calls: active = enhances vemurafenib effect; inactive = no enhancement seen.
The whole screen tested about 18,000 reagents; this is a random part of them. In the full data, 790 (4.4%) are marked active. 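Calls rest on a combination of fold-change classes in drug and vehicle arms, not all shown here.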 Entries without a mark were called inactive. A reagent listed more than once was tested more than once; the source does not tell the runs apart.

gene symbol | cell gain with vemurafenib | lactate per cell with vemurafenib
PPP1R11 (GeneID 6992) | 0.29 | 1.64
KRT5 (GeneID 3852) | 0.5 | 1.71
PCNP (GeneID 57092) | 0.65 (active) | 0.4
ZNF564 (GeneID 163050) | 0.24 | 0.23
HNRNPLL (GeneID 92906) | 0.42 | 0.86
ECE2 (GeneID 9718) | 0.7 | 0.76
ECE2 (GeneID 9718) | 0.79 | 0.91
GNRH1 (GeneID 2796) | 0.64 | 0.38
ZSCAN16 (GeneID 80345) | 0.63 | 0.61
ENPP4 (GeneID 22875) | 0.57 | 1.12
OR1L3 (GeneID 26735) | 0.7 | 0.62
SERPINI2 (GeneID 5276) | 0.49 | 1.54
SSR3 (GeneID 6747) | 0.37 | 0.88
FRMD7 (GeneID 90167) | 0.12 | 1.54
EPS8L1 (GeneID 54869) | 0.42 | 0.86
TMEM223 (GeneID 79064) | 0.95 | 1.34
CUEDC1 (GeneID 404093) | 0.68 | 0.6
MCTP2 (GeneID 55784) | 0.89 | 0.74
ZSCAN5B (GeneID 342933) | 0.51 | 0.7
GBE1 (GeneID 2632) | 0.52 | 0.96
WNT1 (GeneID 7471) | 0.55 | 0.79
ZNF655 (GeneID 79027) | -0.04 | 1.38
GABRQ (GeneID 55879) | 0.26 | 0.85
FMNL1 (GeneID 752) | 0.77 | 0.64
PDHA2 (GeneID 5161) | 0.54 | 1.3
QPCTL (GeneID 54814) | 0.92 | 0.68
MIB1 (GeneID 57534) | 0.3 | 1.42
PCYOX1 (GeneID 51449) | 0.92 | 0.73
SCAMP3 (GeneID 10067) | 0.53 | 1.04
TSPYL6 (GeneID 388951) | 0.88 | 1
PAX5 (GeneID 5079) | 0.58 | 1.06
ZNF84 (GeneID 7637) | 0.63 | 0.84
FHIP1B (GeneID 84067) | 0.12 | 1.75
DENND2C (GeneID 163259) | 1.03 | 0.76
GAGE6 (GeneID 2578) | 0.37 | 0.53
SPATA20 (GeneID 64847) | 0.36 | 2.23
LAIR2 (GeneID 3904) | 0.68 | 0.76
PLA2G5 (GeneID 5322) | 1.15 | 0.32
CXCL12 (GeneID 6387) | 0.5 | 0.62
CHL1 (GeneID 10752) | 0.69 | 0.99
CTAG2 (GeneID 30848) | 0.45 | 1.86
RAB20 (GeneID 55647) | 0.61 | 0.42
ATM (GeneID 472) | 0.73 | 0.88
F13B (GeneID 2165) | 0.91 | 0.74
S100B (GeneID 6285) | 1.16 | 0.88
GC (GeneID 2638) | 0.33 | 0.96
MINAR1 (GeneID 23251) | 0.67 | 1.1
MKS1 (GeneID 54903) | -0.25 | 2.84
MAPKAPK5 (GeneID 8550) | 0.18 | 3.45
ECHDC1 (GeneID 55862) | 0.56 | 0.67
S100A9 (GeneID 6280) | 1.46 | 0.55
DGCR8 (GeneID 54487) | 0.67 | 1.03
PAM16 (GeneID 51025) | 0.54 | 0.46
PIGH (GeneID 5283) | 0.68 | 0.64
MRPS23 (GeneID 51649) | 0.47 | 1.22
AEBP2 (GeneID 121536) | 0.7 | 0.83
MKLN1 (GeneID 4289) | 0.79 | 0.69

Only “lactate per cell with vemurafenib” (5 entries from above):
MKS1 (GeneID 54903): 2.84
MAPKAPK5 (GeneID 8550): 3.45
ECHDC1 (GeneID 55862): 0.67
S100A9 (GeneID 6280): 0.55
DGCR8 (GeneID 54487): 1.03
